Results: patent publication US20040132045A1 (MERCK, published 2004)
No constants are given. Whether binding was seen depends on the method and setting. Some binding calls cover weakened binding; strength is not graded here.

Sequences of proteins named here, by UniProt entry; tags and fusion partners are left off. A change or cut given only in a name is not applied to a line headed by its entry.
UniProt Q8MJ88: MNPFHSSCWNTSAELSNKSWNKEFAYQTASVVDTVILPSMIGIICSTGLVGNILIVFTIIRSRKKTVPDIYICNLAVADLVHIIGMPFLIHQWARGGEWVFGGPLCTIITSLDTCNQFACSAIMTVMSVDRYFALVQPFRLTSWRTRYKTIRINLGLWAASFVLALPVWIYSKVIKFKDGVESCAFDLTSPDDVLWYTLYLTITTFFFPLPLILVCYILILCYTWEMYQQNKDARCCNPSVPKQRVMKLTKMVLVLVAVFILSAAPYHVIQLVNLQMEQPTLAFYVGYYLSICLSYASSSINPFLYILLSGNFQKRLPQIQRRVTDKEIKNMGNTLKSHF
UniProt P20382: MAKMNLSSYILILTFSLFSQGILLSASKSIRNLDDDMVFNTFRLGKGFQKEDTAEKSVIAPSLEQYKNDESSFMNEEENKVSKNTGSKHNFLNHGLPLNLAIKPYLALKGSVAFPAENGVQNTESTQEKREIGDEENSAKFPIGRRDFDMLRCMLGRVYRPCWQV

Columns and labels:
ferret MCH-2R (ferret) = assay: radioligand binding assay on membranes of transfected COS-7 cells
[1] = biological target: rhesus monkey MCH-2R (melanin-concentrating hormone type 2 receptor) (rhesus monkey) (UniProt Q8MJ88); assay: radioligand binding to transfected HEK293T monolayer cells

Substance	binding (ferret MCH-2R (ferret))	binding [1]
Melanin-concentrating hormone (MCH) (from UniProt P20382 147-165) (peptide)	binds	–
[^125I]-MCH (from UniProt P20382 147-165) (peptide)	–	binds
